{"source": "PubChem BioAssay AID504793 – Drosophila RNAi Screening Center, 2011", "aim": "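Genes required for cells to halt at G2/M after double-strand DNA breaks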 (primary screen)", "cells": "Drosophila S2R+ cells", "reagent": "long dsRNA against Drosophila genes, about 0.25 µg dsRNA per well", "time to read-out": "4 days of dsRNA, then 4 hours of drug before read-out", "treatment": "doxorubicin 0.5 µM for 4 hours to cause double-strand breaks, in cells also given a low, harmless dose of dsRNA against nbs to sensitise the assay", "measured": "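Per-well count of mitotic cells stained for phospho-histone H3 after doxorubicin exposure, used as mitotic index; counts are raw and not normalised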", "direction": "mitotic cells: higher = more cells in mitosis, weaker G2 arrest", "rule for the call": "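a call needs confirmation in secondary tests, with other dsRNAs and a check of mitotic timing without damage, not just a high primary count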", "meaning of the calls": "active = confirmed in follow-up tests; inactive = not confirmed", "note": "The screen tested about 23,000 reagents; shown is an unselected part of those with a known target gene and a result. Over the whole deposit, 62 (0.27%) got an active call. 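Calls come from follow-up tests whose scores are not deposited, so confirmed genes may have low counts here; counts are not normalised per plate.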 The raw values are shown without normalisation. Names joined by + are all predicted targets of the reagent."}
{"target": "Wdr92", "dsRNA": "DRSC10187", "mitotic cells, replicate 1": 7, "call": "inactive"}
{"target": "CG9391", "dsRNA": "DRSC11858", "mitotic cells, replicate 1": 4, "call": "inactive"}
{"target": "Rab10", "dsRNA": "DRSC20572", "mitotic cells, replicate 1": 7, "call": "inactive"}
{"target": "Rab10", "dsRNA": "DRSC25270", "mitotic cells, replicate 1": 7, "call": "inactive"}
{"target": "CG15375", "dsRNA": "DRSC18045", "mitotic cells, replicate 1": 10, "call": "inactive"}
{"target": "CG15375", "dsRNA": "DRSC29860", "mitotic cells, replicate 1": 9, "call": "inactive"}
{"target": "CG16753", "dsRNA": "DRSC08489", "mitotic cells, replicate 1": 5, "call": "inactive"}
{"target": "vri", "dsRNA": "DRSC23174", "mitotic cells, replicate 1": 2, "call": "inactive"}
{"target": "vri", "dsRNA": "DRSC26054", "mitotic cells, replicate 1": 3, "call": "inactive"}
{"target": "CG18666", "dsRNA": "DRSC02694", "mitotic cells, replicate 1": 6, "call": "inactive"}
{"target": "CG14684", "dsRNA": "DRSC14907", "mitotic cells, replicate 1": 4, "call": "inactive"}
{"target": "CG10730", "dsRNA": "DRSC02102", "mitotic cells, replicate 1": 7, "call": "inactive"}
{"target": "CG10730", "dsRNA": "DRSC24841", "mitotic cells, replicate 1": 3, "call": "inactive"}
{"target": "CG6654", "dsRNA": "DRSC16084", "mitotic cells, replicate 1": 3, "call": "inactive"}
{"target": "Nlg3", "dsRNA": "DRSC12524", "mitotic cells, replicate 1": 2, "call": "inactive"}
{"target": "Nlg3", "dsRNA": "DRSC12540", "mitotic cells, replicate 1": 4, "call": "inactive"}
{"target": "Nlg3", "dsRNA": "DRSC12574", "mitotic cells, replicate 1": 5, "call": "inactive"}
{"target": "Nlg3", "dsRNA": "DRSC25678", "mitotic cells, replicate 1": 5, "call": "inactive"}
{"target": "Or7a", "dsRNA": "DRSC18691", "mitotic cells, replicate 1": 13, "call": "inactive"}
{"target": "CG13185", "dsRNA": "DRSC06310", "mitotic cells, replicate 1": 6, "call": "inactive"}
{"target": "yrt", "dsRNA": "DRSC16559", "mitotic cells, replicate 1": 24, "call": "inactive"}
{"target": "CG17764", "dsRNA": "DRSC23055", "mitotic cells, replicate 1": 8, "call": "inactive"}
{"target": "sky", "dsRNA": "DRSC02383", "mitotic cells, replicate 1": 8, "call": "inactive"}
{"target": "sky", "dsRNA": "DRSC03214", "mitotic cells, replicate 1": 6, "call": "inactive"}
{"target": "sky", "dsRNA": "DRSC03215", "mitotic cells, replicate 1": 5, "call": "inactive"}
{"target": "zen2", "dsRNA": "DRSC12633", "mitotic cells, replicate 1": 4, "call": "inactive"}
{"target": "zen2", "dsRNA": "DRSC27908", "mitotic cells, replicate 1": 4, "call": "inactive"}
{"target": "karr", "dsRNA": "DRSC20681", "mitotic cells, replicate 1": 3, "call": "inactive"}
{"target": "Sps2", "dsRNA": "DRSC03441", "mitotic cells, replicate 1": 3, "call": "inactive"}
{"target": "Slob", "dsRNA": "DRSC02296", "mitotic cells, replicate 1": 3, "call": "inactive"}
{"target": "Lsd-2", "dsRNA": "DRSC20143", "mitotic cells, replicate 1": 12, "call": "inactive"}
{"target": "Lsd-2", "dsRNA": "DRSC28901", "mitotic cells, replicate 1": 5, "call": "inactive"}
{"target": "ERp60", "dsRNA": "DRSC07309", "mitotic cells, replicate 1": 8, "call": "inactive"}
{"target": "ERp60", "dsRNA": "DRSC24471", "mitotic cells, replicate 1": 6, "call": "inactive"}
{"target": "CG8560", "dsRNA": "DRSC10994", "mitotic cells, replicate 1": 5, "call": "inactive"}
{"target": "CG8560", "dsRNA": "DRSC23854", "mitotic cells, replicate 1": 8, "call": "inactive"}
{"target": "Rab4 + CG42239", "dsRNA": "DRSC05667", "mitotic cells, replicate 1": 8, "call": "inactive"}
{"target": "Gr22a", "dsRNA": "DRSC22283", "mitotic cells, replicate 1": 7, "call": "inactive"}
{"target": "Gr22a", "dsRNA": "DRSC26809", "mitotic cells, replicate 1": 4, "call": "inactive"}
{"target": "pio", "dsRNA": "DRSC04386", "mitotic cells, replicate 1": 3, "call": "inactive"}
{"target": "pio", "dsRNA": "DRSC29371", "mitotic cells, replicate 1": 1, "call": "inactive"}
{"target": "CG15283", "dsRNA": "DRSC01980", "mitotic cells, replicate 1": 6, "call": "inactive"}
{"target": "bw", "dsRNA": "DRSC04005", "mitotic cells, replicate 1": 5, "call": "inactive"}
{"target": "bw", "dsRNA": "DRSC04677", "mitotic cells, replicate 1": 5, "call": "inactive"}

6 entries from above, ordered by “mitotic cells, replicate 1”, low to high:
{"target": "Nlg3", "dsRNA": "DRSC12524", "mitotic cells, replicate 1": 2, "call": "inactive"}
{"target": "CG10730", "dsRNA": "DRSC24841", "mitotic cells, replicate 1": 3, "call": "inactive"}
{"target": "CG6654", "dsRNA": "DRSC16084", "mitotic cells, replicate 1": 3, "call": "inactive"}
{"target": "Nlg3", "dsRNA": "DRSC12540", "mitotic cells, replicate 1": 4, "call": "inactive"}
{"target": "Nlg3", "dsRNA": "DRSC12574", "mitotic cells, replicate 1": 5, "call": "inactive"}
{"target": "CG10730", "dsRNA": "DRSC02102", "mitotic cells, replicate 1": 7, "call": "inactive"}
